Experimental data taken from patent US10543132B2, “Absorbent article with blood modifying agent” (UNICHARM CORPORATION, priority 2011, dated 2020).

Experiment: Absorbent body migration rate (Example 1)
Settings: time after second dropping of horse EDTA blood; agent coated at about 5 g/m^2

Row | Substance | Absorber migration rate [s]
1 | Caprylic Acid Diglyceride | 9
2 | Isopropyl Citrate | 5
